Results from PMC6270209, “Synthesis, Antimycobacterial Activity and In Vitro Cytotoxicity of 5-Chloro-N-phenylpyrazine-2-carboxamides” (Molecules, 2013).
Values joined by “and” are separate entries in the source; they are usually repeats but may differ in a detail not shown here. Identical values can stand only once. Like-named read-outs stand apart in the source and are kept apart here.

Legend:
[1] = system: Chinese hamster ovary (CHO-K1) cell line
[2] = system: renal cell adenocarcinoma (ACHN) cell line
[3] = SI = IC50/MIC (M. tbc H37Rv), Table 2

Structure (SMILES)	CHO-K1 SI [1]	ACHN SI [2]	HepG2 SI (HepG2 cells; [3])	CHO-K1 SI ([1]; SI = IC50/MIC (M. tbc H37Rv))	ACHN SI ([2]; SI = IC50/MIC (M. tbc H37Rv))	HepG2 SI (HepG2 cells)
O=C(Nc1ccc(C(=O)O)c(O)c1)c1cnc(Cl)cn1 [Compound 30, 4-(5-Chloropyrazine-2-carboxamido)-2-hydroxybenzoic acid]	47 and 47.1	35 and 34.8	–	–	–	–
O=C(Nc1ccc(O)cc1)c1cnc(Cl)cn1 [Compound 4, 5-Chloro-N-(4-hydroxyphenyl)pyrazine-2-carboxamide]	–	–	5.5	3.8	8.0	–
NC(=O)c1cnc(Cl)cn1 [Compound 5-Cl-PZA, 5-chloropyrazine-2-carboxamide, reference compound]	0.9	–	–	–	–	10.0
O=C(Nc1cc(Cl)ccc1O)c1cnc(Cl)cn1 [Compound 21, 5-Chloro-N-(5-chloro-2-hydroxyphenyl)pyrazine-2-carboxamide]	–	–	7.4	7.1	9.3	–
